From paper PMC10941009, “Structural basis for specific DNA sequence recognition by the transcription factor NFIL3” (The Journal of Biological Chemistry, 2024)
For some of these results: No signal at the amounts used counts as a negative. For some of these results: At least one verdict was read from the data and is not stated in words by the source. For some of these results: A weaker result is weaker than the reference pair of the same experiment. For some of these results: The exact form of at least one protein or probe is not confirmed.

Amino acid sequences for entries named in this document (tags omitted). Residues count along the entry.
UniProt Q16649, 65-161 R91A: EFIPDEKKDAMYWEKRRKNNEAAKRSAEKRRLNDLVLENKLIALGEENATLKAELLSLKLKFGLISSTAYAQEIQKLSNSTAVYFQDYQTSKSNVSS
UniProt Q16649, 65-161 R91C: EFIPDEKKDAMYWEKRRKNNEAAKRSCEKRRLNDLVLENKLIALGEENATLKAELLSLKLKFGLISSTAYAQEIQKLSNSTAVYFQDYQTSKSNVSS
UniProt Q16649, 65-161 N83A: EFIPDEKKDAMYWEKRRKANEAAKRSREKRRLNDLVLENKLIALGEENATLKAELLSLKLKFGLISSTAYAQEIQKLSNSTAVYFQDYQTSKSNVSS
UniProt Q16649, 65-161 R80A: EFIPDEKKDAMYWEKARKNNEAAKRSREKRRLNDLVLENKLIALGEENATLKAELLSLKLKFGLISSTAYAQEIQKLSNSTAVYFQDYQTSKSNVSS
UniProt Q16649, 65-161 R91H: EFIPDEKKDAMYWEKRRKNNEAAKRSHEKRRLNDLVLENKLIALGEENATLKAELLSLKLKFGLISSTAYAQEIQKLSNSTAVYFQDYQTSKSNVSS
UniProt Q16649, 65-161: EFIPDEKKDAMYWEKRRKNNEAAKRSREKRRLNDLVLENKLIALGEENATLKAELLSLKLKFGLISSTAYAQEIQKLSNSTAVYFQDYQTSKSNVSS
UniProt P35638, 88-162: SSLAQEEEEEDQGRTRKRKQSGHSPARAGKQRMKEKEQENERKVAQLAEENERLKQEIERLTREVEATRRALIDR

How the values were obtained:
[1] = target: NFIL3 R91A (human) (UniProt Q16649); test: ITC; settings: negligible or very weak (NB or WB in figure); ITC: 20 mM Tris pH 7.5, 150 mM NaCl, 25 °C; recombinant protein; residues 65-161; protein details: His6-SUMO removed by TEV
[2] = target: NFIL3 R91C (human) (UniProt Q16649); test: ITC; settings: NB, no Kd given; ITC: 20 mM Tris pH 7.5, 150 mM NaCl, 25 °C; recombinant protein; residues 65-161; protein details: His6-SUMO removed by TEV
[3] = target: NFIL3 N83A (human) (UniProt Q16649); test: ITC; settings: negligible or very weak (NB or WB in figure); ITC: 20 mM Tris pH 7.5, 150 mM NaCl, 25 °C; recombinant protein; residues 65-161; protein details: His6-SUMO removed by TEV
[4] = target: NFIL3 R80A (human) (UniProt Q16649); test: ITC; settings: negligible or very weak (NB or WB in figure); ITC: 20 mM Tris pH 7.5, 150 mM NaCl, 25 °C; recombinant protein; residues 65-161; protein details: His6-SUMO removed by TEV
[5] = target: NFIL3 R91H (human) (UniProt Q16649); test: ITC; settings: NB, no Kd given; ITC: 20 mM Tris pH 7.5, 150 mM NaCl, 25 °C; recombinant protein; residues 65-161; protein details: His6-SUMO removed by TEV
[6] = target: C/EBPζ bZIP (human) (UniProt P35638); test: EMSA; settings: 6-48 uM protein; EMSA: same buffer, 4 °C, 6% native gel in 0.5x TBE; recombinant protein; residues 88-162; protein details: His6-SUMO removed by TEV; label: 5' FAM
[7] = target: NFIL3 bZIP (long) (human) (UniProt Q16649); test: EMSA; settings: positive control, 6-24 uM protein, construct span not stated; EMSA: same buffer, 4 °C, 6% native gel in 0.5x TBE; recombinant protein; residues 65-161; protein details: His6-SUMO removed by TEV; label: 5' FAM

Sequence: CATTACGTAATG (double strand)
- binding result [1]: binds more weakly
- binding result [2]: no binding
- binding result [3]: binds more weakly
- binding result [4]: binds more weakly
- binding result [5]: no binding

Sequence: CATTACGTAATG (double strand) [FAM-TTACGTAA]
- binding result [6]: no binding
- binding result [7]: binds
